Source: doi:10.1101/2025.11.28.691009
No constants are given. Whether binding was seen depends on the method and setting. In cells and extracts the contact can be indirect. Some entries that bind do so weakly or less than the wild type. Sequences can lack the tags named with a protein. Blank lines part the entries; values can stand above or below the molecule they belong to.

Amino acid sequences for entries named in this document (tags omitted).
UniProt Q9JIM3, whole entry: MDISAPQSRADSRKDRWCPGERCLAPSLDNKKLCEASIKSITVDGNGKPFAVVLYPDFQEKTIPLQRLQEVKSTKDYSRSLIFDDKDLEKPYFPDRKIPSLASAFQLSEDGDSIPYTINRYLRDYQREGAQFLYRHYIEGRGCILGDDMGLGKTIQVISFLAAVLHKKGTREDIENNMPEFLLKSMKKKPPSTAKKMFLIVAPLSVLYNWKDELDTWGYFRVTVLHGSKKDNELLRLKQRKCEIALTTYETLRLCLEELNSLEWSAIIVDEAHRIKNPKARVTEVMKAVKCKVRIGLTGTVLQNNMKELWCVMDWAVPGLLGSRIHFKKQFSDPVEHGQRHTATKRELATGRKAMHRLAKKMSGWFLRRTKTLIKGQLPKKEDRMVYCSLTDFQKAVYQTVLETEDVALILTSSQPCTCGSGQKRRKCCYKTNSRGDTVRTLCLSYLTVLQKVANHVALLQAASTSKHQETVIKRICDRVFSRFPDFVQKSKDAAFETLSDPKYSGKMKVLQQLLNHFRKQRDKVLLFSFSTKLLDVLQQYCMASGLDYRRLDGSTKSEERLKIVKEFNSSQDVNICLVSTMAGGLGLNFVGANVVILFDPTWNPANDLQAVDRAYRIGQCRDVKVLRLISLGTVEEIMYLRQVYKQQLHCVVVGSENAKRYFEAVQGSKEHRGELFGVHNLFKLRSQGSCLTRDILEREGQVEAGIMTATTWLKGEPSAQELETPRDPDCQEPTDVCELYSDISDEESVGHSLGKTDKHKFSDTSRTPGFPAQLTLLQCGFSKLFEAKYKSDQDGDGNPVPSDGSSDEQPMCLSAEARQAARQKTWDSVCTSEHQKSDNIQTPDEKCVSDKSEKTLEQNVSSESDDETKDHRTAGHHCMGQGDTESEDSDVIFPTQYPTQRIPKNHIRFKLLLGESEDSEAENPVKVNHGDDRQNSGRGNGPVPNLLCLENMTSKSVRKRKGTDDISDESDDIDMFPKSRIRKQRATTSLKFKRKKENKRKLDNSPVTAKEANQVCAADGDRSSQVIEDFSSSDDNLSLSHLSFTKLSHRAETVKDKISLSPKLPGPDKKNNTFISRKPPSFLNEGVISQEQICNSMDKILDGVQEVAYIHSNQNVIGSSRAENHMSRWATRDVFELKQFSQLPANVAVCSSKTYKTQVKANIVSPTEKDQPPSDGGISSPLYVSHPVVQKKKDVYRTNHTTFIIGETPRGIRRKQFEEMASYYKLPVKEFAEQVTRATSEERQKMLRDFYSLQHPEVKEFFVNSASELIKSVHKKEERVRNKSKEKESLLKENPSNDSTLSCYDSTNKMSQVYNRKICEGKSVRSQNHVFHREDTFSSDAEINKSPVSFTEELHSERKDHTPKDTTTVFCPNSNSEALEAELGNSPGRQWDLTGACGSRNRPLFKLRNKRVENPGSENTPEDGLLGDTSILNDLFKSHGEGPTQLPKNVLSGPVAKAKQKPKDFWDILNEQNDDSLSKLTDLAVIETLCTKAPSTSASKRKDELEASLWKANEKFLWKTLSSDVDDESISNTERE

Experiments:
[1] = biological target: T1, triple-FLAG MRI (wild type) (UniProt Q8BHZ5); experiment: pull-down
T1 sequence: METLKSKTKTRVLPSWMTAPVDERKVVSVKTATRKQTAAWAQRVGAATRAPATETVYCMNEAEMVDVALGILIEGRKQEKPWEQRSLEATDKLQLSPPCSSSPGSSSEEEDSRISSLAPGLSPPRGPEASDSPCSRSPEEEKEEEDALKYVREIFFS

[2] = biological target: TwinStrep-HA-ERCC6L2 (endogenously tagged) (mouse (endogenous in CH12-F3)) (UniProt Q9JIM3); experiment: pull-down

binding [1]: binds
Molecule: TwinStrep-HA-ERCC6L2 (endogenously tagged) (from UniProt Q9JIM3 1-1537) (enzyme)

binding [2]: binds
B1: triple-FLAG MRI (wild type) (protein, UniProt Q8BHZ5 1-157)
chain: T1 sequence
